Test results as given in PubChem BioAssay AID624297 (National Center for Advancing Translational Sciences (NCATS), 2012).
The whole screen tested about 340,000 compounds, of which about 6,200 (1.8%) were called active. The inconclusive results got no clear call from the source; some entries with a clear call stand among them for comparison. Calls follow the shape of the dose curve; as a rule, active = well fitted activation curve with a large enough effect; inconclusive = small, poorly fitted or top-dose-only effect; inactive = no such curve, though single readings can be large or run the other way. Potencies of inconclusive entries are doubtful fits and often do not repeat.

Experiment: A quantitative high throughput screen for small molecules that induce DNA re-replication in SW480 colon adenocarcinoma cells. Also: nearly all actives have a fitted effect of over 55% in size. As to re-replication activation: % of control where 0% means no effect.
Settings: Hoechst DNA content imaging, 48 h; re-replication activation: at 46.1 µM (top of the series) unless noted
In short: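 Treated cells incubate 48 hr (37 C, 5% CO2), are stained 40 min with Hoechst, and nuclear fluorescence is enumerated; a rise in nuclei with high DNA signal marks re-replication.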
Potency is read from the fitted curve at half-maximal effect.

Question: Which Potency does the source give for Cc1ccccc1/C=C/c1cc[n+](C)cc1 here?
Answer: Its Potency is “inactive”.

Question: With Cc1cc(C)c(OCC(=O)Nc2ccccc2N2CCCCC2)c(C)c1 as the compound, how does the Potency read?
Answer: The Potency was inconclusive: 11.6 µM [activator, partial curve, poor fit].

Question: For COc1ccccc1NS(=O)(=O)c1cccc(NC(=O)c2cc3ccccc3oc2=O)c1, which Potency is on record?
Answer: The Potency was “inactive”.

Question: With O=C(CC(=O)c1cc(Cl)ccc1O)c1ccccc1 as the compound, how does the Potency read?
Answer: Its Potency is inconclusive: 20.6 µM [activator, single point].

Question: For CC1CCC(C(C)C)C(OC(=O)c2ccccc2O)C1 (configuration not stated), which Potency is on record?
Answer: The Potency was “inactive”.

Question: For O=S(=O)(c1cccs1)N1CN(Cc2ccc(F)cc2)c2nc3ccccc3nc21, which Potency is on record?
Answer: Its Potency is inconclusive: 29.1 µM [activator, single point].

Question: With Cc1cc(/C=C2/SC(=O)NC2=O)c(C)n1-c1ccc(N2CCOCC2)cc1 as the compound, how does the Potency read?
Answer: The Potency was “inactive”.

Question: For Cc1ccc(C(=O)NCCNC(=O)CN2CCOCC2)cc1, which Potency is on record?
Answer: Its Potency is inconclusive: 29.1 µM [activator, single point].

Question: With CCCCCc1ccc(OCCOCCn2c[n+](C)c3ccccc32)c(CCCCC)c1 as the compound, how does the Potency read?
Answer: The Potency was inconclusive: 29.1 µM [activator, single point].

Question: For O=C(C=Cc1ccccc1)c1c[nH]c2ccccc2c1=O, which Potency is on record?
Answer: Its Potency is active: 8.2 µM.

Question: With CCc1ccc(C2=NN(CCC(=O)NC(C)c3ccc4c(c3)OCCO4)C(=O)CC2)cc1 (configuration not stated) as the compound, how does the Potency read?
Answer: Its Potency is inconclusive: 18.4 µM [activator, partial curve, poor fit].

Question: For Cn1nc(C(=O)N2CCC(C(N)=O)CC2)c2c1-c1ccccc1SC2, which Potency is on record?
Answer: Its Potency is “inactive”.

Question: For CC(OC(=O)c1cc(S(=O)(=O)Nc2ccc(F)cc2)ccc1Cl)C(=O)Nc1ccc2c(c1)OCCO2 (configuration not stated), which Potency is on record?
Answer: The Potency was inconclusive: 16.4 µM [activator, partial curve, poor fit].

Question: For N#Cc1cc([N+](=O)[O-])c(-n2nnc3ccccc32)c([N+](=O)[O-])c1, which Potency is on record?
Answer: The Potency was inconclusive: 20.6 µM [activator, single point].

Question: For COc1cc(NC(=O)c2c(F)c(F)c(F)c(F)c2F)c(OC)cc1Cl, which Potency is on record?
Answer: Its Potency is inconclusive: 23.1 µM [activator, single point].

Question: Which Potency does the source give for O=C1N=C(N2CCCC2C(=O)O)S/C1=C\c1ccco1 (configuration not stated) here?
Answer: Its Potency is inconclusive: 29.1 µM [activator, partial curve, poor fit].

Question: With N=c1c(S(=O)(=O)c2ccc(Cl)cc2)cc2c(=O)n3ccccc3nc2n1Cc1cccnc1 as the compound, how does the Potency read?
Answer: Its Potency is “inactive”.

Question: Which Potency does the source give for COc1cccc(N2CCN(C(=O)CCCCCn3c(=S)[nH]c4cc5c(cc4c3=O)OCO5)CC2)c1 here?
Answer: The Potency was inconclusive: 29.1 µM [activator, single point].

Question: For O=C(O)c1cc2cc(Cl)ccc2[nH]1, which Potency is on record?
Answer: Its Potency is inconclusive: 23.1 µM [activator, single point].

Question: Which Potency does the source give for CN1OC[C@@H]2CN[C@H](c3cccc(-c4cc(Cl)cc(Cl)c4)c3)C[C@@H]21 here?
Answer: The Potency was inconclusive: 1.16 µM [activator, single point].

Question: Which Potency does the source give for Cc1ccc(SCc2ccc(C(=O)Nc3cccc([N+](=O)[O-])c3C)cc2)cc1 here?
Answer: The Potency was inconclusive: 29.1 µM [activator, single point].

Question: For Cc1cc(NCCN2CCOCC2)c2ccc3ccccc3c2n1, which Potency is on record?
Answer: Its Potency is inconclusive: 20.6 µM [activator, single point].

Question: For Fc1ccc(NC(=S)NNc2ncc(C(F)(F)F)cc2Cl)c(F)c1, which Potency is on record?
Answer: The Potency was inconclusive: 29.1 µM [activator, partial curve, poor fit].

Question: Which Potency does the source give for c1ccc(-c2nc(NCC3CCCO3)c3oc4ccccc4c3n2)cc1 (configuration not stated) here?
Answer: The Potency was “inactive”.

Question: With N#CC(C#N)=C1C=CC=CN1/C(=C\c1ccccc1Cl)C(=O)c1ccccc1 as the compound, how does the Potency read?
Answer: Its Potency is active: 9.2 µM.

Question: Which Potency does the source give for COc1cc(/C=N/N(C)c2ccccc2)ccc1O here?
Answer: Its Potency is “inactive”.

Question: With C/C(=N\Nc1ccc(Cl)nn1)c1ccccc1O as the compound, how does the Potency read?
Answer: Its Potency is inconclusive: 0.291 µM [activator, partial curve, poor fit].

Question: With Cc1cc(C)cc(OCc2nnc(SCC(=O)N3CCN(c4ccccc4)CC3)o2)c1 as the compound, how does the Potency read?
Answer: The Potency was inconclusive: 29.1 µM [activator, single point].

Question: For COC(=O)c1sc(NC(=O)c2ccco2)c(C#N)c1C, which Potency is on record?
Answer: Its Potency is inconclusive: 29.1 µM [activator, single point].

Question: For Cc1cc(C)c(C(N)=O)c(Nc2ccc3c(c2)OCCO3)n1, which Potency is on record?
Answer: The Potency was “inactive”.

Question: With O=c1c2ccccc2oc2cc(-c3ccc4cc[nH]c4c3)ccc12 as the compound, how does the Potency read?
Answer: Its Potency is inconclusive: 1.3 µM [activator, full curve, poor fit].

Question: For COC(=O)c1ccc(NC(=S)NC2CCc3ccccc32)cc1 (configuration not stated), which Potency is on record?
Answer: Its Potency is inconclusive: 29.1 µM [activator, partial curve, poor fit].

Question: For C[C@]1(C(=O)NCc2cc(F)cc(C(F)(F)F)c2)C=C[C@@H](Cc2ccccc2)N1C(=O)c1ccccc1, which Potency is on record?
Answer: Its Potency is inconclusive: 2.06 µM [activator, full curve, poor fit].

Question: Which Potency does the source give for CC12CN3CC(C)(CN(C1)C3c1ccccc1F)C2 (configuration not stated) here?
Answer: Its Potency is “inactive”.

Question: Which Potency does the source give for CCCOCCOC(=O)c1[nH]c2c(c1C)C(=O)CC(c1cc(OC)ccc1OC)C2 (configuration not stated) here?
Answer: Its Potency is active: 3.66 µM.

Question: For O=C(CCN1C(=O)C2C3C=CC(C4CC34)C2C1=O)Oc1cccc2cccnc12 (configuration not stated), which Potency is on record?
Answer: The Potency was inconclusive: 0.58 µM [activator, full curve, poor fit].

Question: For N=c1c(C(=O)NCc2ccco2)cc2c(=O)n3ccccc3nc2n1Cc1ccc(Cl)cc1, which Potency is on record?
Answer: The Potency was active: 9.2 µM.

Question: For O=C(NCc1cccnc1)C1CCCN1S(=O)(=O)c1ccc(Cl)cc1 (configuration not stated), which Potency is on record?
Answer: Its Potency is inconclusive: 4.61 µM [activator, partial curve, poor fit].

Question: For Nc1nnn(CC(=O)N/N=C/c2ccncc2)n1, which Potency is on record?
Answer: Its Potency is “inactive”.

Question: Which Potency does the source give for CN(C)CCNC(=O)c1cccc2nc3c(ccc4ccccc43)nc12 here?
Answer: Its Potency is inconclusive: 3.66 µM [activator, partial curve, poor fit].

Question: Which Potency does the source give for COc1ccc(OC)c(C2=NOC(C(=O)NCC3CCCO3)C2)c1 (configuration not stated) here?
Answer: The Potency was “inactive”.

Question: With CCOc1ccccc1NC(=O)COC(=O)c1ccc2ccccc2n1 as the compound, how does the Potency read?
Answer: The Potency was inconclusive: 3.66 µM [activator, partial curve, poor fit].

Question: With O=C(O)c1cc(N=Cc2c(O)c3ccccc3oc2=O)ccc1O as the compound, how does the Potency read?
Answer: The Potency was inconclusive: 6.51 µM [activator, partial curve, poor fit].

Question: With Cc1nn(C)c(C(=O)NNC(=S)NCC(C)C)c1Cl as the compound, how does the Potency read?
Answer: The Potency was inconclusive: 0.146 µM [activator, full curve, poor fit].

Question: With Cc1ccc(N2N=C(c3ccc(F)cc3)CC2c2ccco2)cc1 (configuration not stated) as the compound, how does the Potency read?
Answer: The Potency was inconclusive: 1.16 µM [activator, partial curve, poor fit].

Question: Which Potency does the source give for N#Cc1c(NC(=O)CSc2ncnc3c2cnn3-c2ccccc2Cl)sc2c1CCCC2 here?
Answer: The Potency was inconclusive: 18.4 µM [activator, partial curve, poor fit].

Question: Which Potency does the source give for O=C(Nc1ccc(Nc2ccccc2)cc1)c1cccc(F)c1 here?
Answer: Its Potency is inconclusive: 0.517 µM [activator, partial curve, poor fit].

Question: With O=C(Nc1ncccc1Cl)c1ccccc1F as the compound, how does the Potency read?
Answer: The Potency was inconclusive: 4.11 µM [activator, full curve, poor fit].

Question: With COc1ccccc1C(C)NC(=O)c1ccccc1SCC(=O)N1CCCC1 (configuration not stated) as the compound, how does the Potency read?
Answer: Its Potency is inconclusive: 0.461 µM [activator, partial curve, poor fit].

Question: For O=C(COc1ccc(S(=O)(=O)N2CCCCC2)cc1Cl)N1CCOCC1, which Potency is on record?
Answer: Its Potency is “inactive”.

Question: With CN(C)c1ccc(N/C=C/C(=O)c2ccco2)cc1 as the compound, how does the Potency read?
Answer: Its Potency is inconclusive: 32.6 µM [activator, partial curve, poor fit].

Question: With CCOC(=O)N1CCN(Cc2nc3ccc([N+](=O)[O-])cc3c(=O)n2-c2ccccc2F)CC1 as the compound, how does the Potency read?
Answer: The Potency was inconclusive: 20.6 µM [activator, single point].

Question: With CC1(C)CC2CC(C)(CN2/C=N/c2sc3c(c2C#N)CC(C)(C)NC3(C)C)C1 (configuration not stated) as the compound, how does the Potency read?
Answer: Its Potency is inconclusive: 23.1 µM [activator, single point].

Question: With Cc1ccc(NC2=C(NC(=O)c3ccccc3)C(=O)c3ccccc3C2=O)cc1Cl as the compound, how does the Potency read?
Answer: The Potency was inconclusive: 29.1 µM [activator, single point].

Question: For CCc1ccc(/C=N/NC(=O)Cc2cccn2C)cc1, which Potency is on record?
Answer: Its Potency is inconclusive: 6.51 µM [activator, single point].

Question: For CC(=O)c1cccc2c(O)c(C3=Nc4ccccc4C3=O)[nH]c12, which Potency is on record?
Answer: Its Potency is inconclusive: 29.1 µM [activator, single point].

Question: For CCCCn1c(SCc2c(C)noc2C)nc2cc(S(N)(=O)=O)ccc21, which Potency is on record?
Answer: The Potency was “inactive”.

Question: With CCn1c(SCC(=O)N2CCCc3ccccc32)nc2cccnc21 as the compound, how does the re-replication activation read?
Answer: The re-replication activation was inactive: 0.572% [at 9.22 µM].

Question: For Cc1ccc(NC(=O)CNC(=O)N2CC(=O)Nc3ccccc32)cc1F, which Potency is on record?
Answer: The Potency was inconclusive: 9.2 µM [activator, partial curve, poor fit].

Question: For C/C=C/c1ccc(OCCCCNCc2ccco2)c(OC)c1, which Potency is on record?
Answer: The Potency was inconclusive: 29.1 µM [activator, single point].

Question: With O=C(CN(Cc1ccco1)C(=O)CCC(=O)Nc1ccccn1)NCc1ccccc1 as the compound, how does the Potency read?
Answer: Its Potency is “inactive”.

Question: For Cc1ccc(S(=O)(=O)c2cc3ccccc3oc2=Nc2ccc3c(c2)OCCO3)cc1, which Potency is on record?
Answer: Its Potency is “inactive”.

Question: Which Potency does the source give for Cn1ncc2c(N3CCOCC3)ncnc21 here?
Answer: The Potency was inconclusive: 32.6 µM [activator, partial curve, poor fit].

Question: For COc1ccc(-c2cc(C(=O)N/N=C(\C)c3ccco3)c3ccccc3n2)c(OC)c1, which Potency is on record?
Answer: Its Potency is “inactive”.

Question: With c1ccc(-c2csc3ncnc(NCc4ccccn4)c23)cc1 as the compound, how does the Potency read?
Answer: The Potency was “inactive”.

Question: With C[C@]12c3[nH]c4cc(-c5ccco5)ccc4c3CCN1C(=O)[C@@H](CC(=O)NCc1cccc(C(F)(F)F)c1)C[C@@H]2C(=O)N1CCCCC1 as the compound, how does the Potency read?
Answer: The Potency was inconclusive: 0.259 µM [activator, full curve, poor fit].

Question: Which Potency does the source give for CC(C)Oc1ccc(C(=O)Nc2cccc(S(=O)(=O)N3CCCC3)c2)cc1 here?
Answer: Its Potency is inconclusive: 29.1 µM [activator, single point].
